From publication PMC7599698
Results are given in words; binding and its absence hold for the method and conditions named. Binding seen in cells or lysates may run through a third protein. Some binding calls cover weakened binding; strength is not graded here. Values belong to the substance of their own block, whether it stands above or below them.

Protein sequences, listed by entry. Tags and fused reporters are not part of them.
UniProt Q05397: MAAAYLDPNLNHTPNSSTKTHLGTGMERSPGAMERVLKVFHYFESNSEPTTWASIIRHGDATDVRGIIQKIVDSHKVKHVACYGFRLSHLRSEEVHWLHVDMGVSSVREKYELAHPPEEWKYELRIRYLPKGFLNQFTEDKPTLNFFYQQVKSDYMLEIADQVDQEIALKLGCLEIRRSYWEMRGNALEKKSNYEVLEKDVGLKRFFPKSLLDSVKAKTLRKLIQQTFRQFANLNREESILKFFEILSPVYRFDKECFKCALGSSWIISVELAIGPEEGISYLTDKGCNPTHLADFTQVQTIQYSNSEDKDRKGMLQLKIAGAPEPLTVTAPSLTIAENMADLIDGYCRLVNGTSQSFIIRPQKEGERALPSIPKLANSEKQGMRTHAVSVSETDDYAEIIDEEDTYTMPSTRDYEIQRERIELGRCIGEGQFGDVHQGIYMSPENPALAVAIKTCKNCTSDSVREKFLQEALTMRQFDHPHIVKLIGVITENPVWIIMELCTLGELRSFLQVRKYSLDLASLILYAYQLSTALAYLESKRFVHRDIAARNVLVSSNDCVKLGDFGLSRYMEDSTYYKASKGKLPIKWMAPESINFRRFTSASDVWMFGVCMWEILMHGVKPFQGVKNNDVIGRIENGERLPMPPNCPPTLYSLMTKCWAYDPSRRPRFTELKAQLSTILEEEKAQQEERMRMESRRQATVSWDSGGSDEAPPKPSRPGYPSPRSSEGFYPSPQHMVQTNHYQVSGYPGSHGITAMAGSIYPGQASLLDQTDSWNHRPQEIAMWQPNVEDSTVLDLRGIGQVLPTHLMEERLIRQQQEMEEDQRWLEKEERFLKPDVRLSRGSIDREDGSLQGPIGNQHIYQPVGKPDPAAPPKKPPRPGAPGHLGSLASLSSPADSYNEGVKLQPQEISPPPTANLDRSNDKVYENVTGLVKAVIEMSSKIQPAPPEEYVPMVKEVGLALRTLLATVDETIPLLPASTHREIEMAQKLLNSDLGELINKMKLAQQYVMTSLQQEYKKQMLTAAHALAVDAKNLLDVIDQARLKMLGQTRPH
UniProt O75116: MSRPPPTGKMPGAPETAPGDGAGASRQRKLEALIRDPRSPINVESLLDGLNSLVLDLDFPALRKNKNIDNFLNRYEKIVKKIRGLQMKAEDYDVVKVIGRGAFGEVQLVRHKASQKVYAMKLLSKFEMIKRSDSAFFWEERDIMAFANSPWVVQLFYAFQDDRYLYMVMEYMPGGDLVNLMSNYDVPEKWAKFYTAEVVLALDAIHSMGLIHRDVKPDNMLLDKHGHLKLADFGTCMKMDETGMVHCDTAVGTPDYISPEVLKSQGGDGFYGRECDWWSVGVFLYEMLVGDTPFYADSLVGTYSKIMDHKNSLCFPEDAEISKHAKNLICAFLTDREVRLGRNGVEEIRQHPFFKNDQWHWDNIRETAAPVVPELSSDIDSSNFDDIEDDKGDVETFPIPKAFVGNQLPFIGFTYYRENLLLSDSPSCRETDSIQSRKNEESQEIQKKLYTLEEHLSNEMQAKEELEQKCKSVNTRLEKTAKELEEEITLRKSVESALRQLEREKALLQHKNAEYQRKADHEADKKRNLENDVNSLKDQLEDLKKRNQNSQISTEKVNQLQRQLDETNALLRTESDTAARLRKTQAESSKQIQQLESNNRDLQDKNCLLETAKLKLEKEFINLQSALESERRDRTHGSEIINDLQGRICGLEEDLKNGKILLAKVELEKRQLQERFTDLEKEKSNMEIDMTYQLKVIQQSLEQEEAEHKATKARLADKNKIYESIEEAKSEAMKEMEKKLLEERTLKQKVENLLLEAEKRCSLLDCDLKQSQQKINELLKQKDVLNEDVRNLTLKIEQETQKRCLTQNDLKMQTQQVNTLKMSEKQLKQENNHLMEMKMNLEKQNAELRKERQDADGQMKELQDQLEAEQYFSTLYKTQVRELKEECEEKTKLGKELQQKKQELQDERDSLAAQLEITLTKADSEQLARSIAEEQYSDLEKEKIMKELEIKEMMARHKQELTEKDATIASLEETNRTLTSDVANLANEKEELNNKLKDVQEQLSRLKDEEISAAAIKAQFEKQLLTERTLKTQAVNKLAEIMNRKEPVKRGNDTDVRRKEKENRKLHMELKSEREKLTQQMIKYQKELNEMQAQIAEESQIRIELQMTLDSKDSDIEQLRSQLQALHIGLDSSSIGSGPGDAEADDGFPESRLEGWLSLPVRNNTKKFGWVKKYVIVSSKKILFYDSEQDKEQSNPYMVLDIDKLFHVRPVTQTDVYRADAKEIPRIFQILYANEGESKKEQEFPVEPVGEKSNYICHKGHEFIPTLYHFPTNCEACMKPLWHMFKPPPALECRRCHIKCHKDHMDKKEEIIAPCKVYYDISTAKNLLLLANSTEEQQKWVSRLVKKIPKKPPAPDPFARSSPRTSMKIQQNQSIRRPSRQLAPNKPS
UniProt P61586: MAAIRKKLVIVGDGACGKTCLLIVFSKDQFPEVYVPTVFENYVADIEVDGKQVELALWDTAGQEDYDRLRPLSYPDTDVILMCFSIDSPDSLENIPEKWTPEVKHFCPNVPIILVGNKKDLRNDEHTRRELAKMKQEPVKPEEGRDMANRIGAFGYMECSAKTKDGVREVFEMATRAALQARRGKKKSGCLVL
UniProt P15311: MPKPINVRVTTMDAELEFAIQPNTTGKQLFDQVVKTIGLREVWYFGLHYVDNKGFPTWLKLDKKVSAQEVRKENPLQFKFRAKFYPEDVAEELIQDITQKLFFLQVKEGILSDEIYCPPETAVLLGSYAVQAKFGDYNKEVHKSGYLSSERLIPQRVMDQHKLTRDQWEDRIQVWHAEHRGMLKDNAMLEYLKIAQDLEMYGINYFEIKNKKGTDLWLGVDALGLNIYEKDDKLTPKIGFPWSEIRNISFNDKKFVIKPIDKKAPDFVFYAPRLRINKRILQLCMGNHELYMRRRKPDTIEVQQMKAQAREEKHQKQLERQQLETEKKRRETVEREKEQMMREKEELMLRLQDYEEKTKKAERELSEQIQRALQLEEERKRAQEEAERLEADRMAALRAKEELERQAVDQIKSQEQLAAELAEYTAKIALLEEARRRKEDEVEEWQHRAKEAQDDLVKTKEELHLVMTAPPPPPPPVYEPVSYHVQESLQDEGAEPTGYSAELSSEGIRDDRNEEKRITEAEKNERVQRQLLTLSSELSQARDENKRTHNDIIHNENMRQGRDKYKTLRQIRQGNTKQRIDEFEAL

Columns and labels:
[1] = target: epidermal growth factor receptor (EGFR) (human (endogenous in MCF-7 and MDA-MB-231)) (UniProt P00533); assay: proximity ligation; in situ PLA on MCF-7 cells treated with EGF together with CD99CRIII3
[2] = target: epidermal growth factor receptor (EGFR) (human (endogenous in MCF-7 and MDA-MB-231)) (UniProt P00533); assay: proximity ligation; in situ PLA (Duolink) on fixed, Triton-permeabilised MCF-7 or MDA-MB-231 cells; EGF 25 ng/mL, 15 min (or time course), 37 °C; cells in part treated with cytochalasin D, siRNAs/shRNA, CA- or DN-plasmids (FAK, c-Src, Rac1, RhoA), CD99CRIII3 or CD99-Fc
[3] = target: focal adhesion kinase (FAK) (human (endogenous in MCF-7 and MDA-MB-231)) (UniProt Q05397); assay: as above
[4] = target: coiled-coil containing protein kinase 2 (ROCK2) (human (endogenous in MCF-7 and MDA-MB-231)) (UniProt O75116); assay: co-IP; MDA-MB-231 cells treated with EGF (25 ng/mL) with or without CD99CRIII3 (40 µM), in part PTPN12 siRNA or plasmids for CA-GTPases, WAVE2, ARP2, ROCK2, Ezrin; lysis in PRO-PREP solution, antibody overnight at 4 °C, Protein A/G agarose, Western blot
[5] = target: coiled-coil containing protein kinase 2 (ROCK2) (human (endogenous in MCF-7 and MDA-MB-231)) (UniProt O75116); assay: proximity ligation; in situ PLA (Duolink) on fixed, Triton-permeabilised MCF-7 or MDA-MB-231 cells; EGF 25 ng/mL, 15 min (or time course), 37 °C; cells in part treated with cytochalasin D, siRNAs/shRNA, CA- or DN-plasmids (FAK, c-Src, Rac1, RhoA), CD99CRIII3 or CD99-Fc

binding [2]: binds
Substance: focal adhesion kinase (FAK) (from UniProt Q05397 1-1052) (enzyme)
binding [1]: no binding (condition: cells co-treated with CD99CRIII3)

binding [3]: binds
Substance: RhoA (from UniProt P61586 1-193)

binding [4]: binds | binding [5]: binds
Substance: Ezrin (from UniProt P15311 1-586)
